Measurements reported in PMC3738525.
These are yes or no findings as the source states them, for the method shown. Binding seen in cells or lysates may run through a third protein. Here binding means that the protein was enriched with, or labelled near, the bait; the list need not be complete.

Protein sequences, listed by entry. Tags and fused reporters are not part of them.
UniProt P23528: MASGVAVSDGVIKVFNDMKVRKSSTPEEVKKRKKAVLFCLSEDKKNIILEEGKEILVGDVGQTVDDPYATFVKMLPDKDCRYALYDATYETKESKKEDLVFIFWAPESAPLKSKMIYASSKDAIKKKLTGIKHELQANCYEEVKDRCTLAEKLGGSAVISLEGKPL
UniProt P63104: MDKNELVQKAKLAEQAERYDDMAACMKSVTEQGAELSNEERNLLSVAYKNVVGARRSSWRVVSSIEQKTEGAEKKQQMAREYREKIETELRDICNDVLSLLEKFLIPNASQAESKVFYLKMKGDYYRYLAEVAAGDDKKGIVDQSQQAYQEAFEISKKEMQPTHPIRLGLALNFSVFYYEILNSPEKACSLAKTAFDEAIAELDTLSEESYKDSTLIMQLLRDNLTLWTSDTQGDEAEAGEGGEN

Biological target: endogenous cofilin (human (endogenous in platelets and HUVEC)) (UniProt P23528)
Assay: affinity purification with mass spectrometry; endothelial cells cross-linked with 1% formaldehyde, RIPA lysate, anti-cofilin antibody and protein A magnetic beads; control beads alone; trypsin digest, LC-MS/MS

binding: binds
Substance: 14-3-3ζ (from UniProt P63104 1-245)
